Earlier results on 1 molecule are cited in publication PMC10041537, “Molecular origins of mutational spectra produced by the environmental carcinogen N-nitrosodimethylamine and SN1 chemotherapeutic agents” (NAR Cancer, 2023).

SMILES strings stand for the structures.

The test system of the data set is DNA. Set-up: method as in PMID 2195323, PMID 7251633. The conditions noted are these: cited from earlier work.

On to `C[N+]#N` [methyldiazonium ion], for which the “3-methyladenine (m3A), share of all DNA adducts” value was about 3%; the “7-methylguanine (m7G), share of all DNA adducts” value is about 70%; the “O^6-methylguanine (m6G), share of all DNA adducts” value was about 7%; the “methyl phosphotriester, share of all DNA adducts” value is recorded as about 15%.
